# In the supplement of paper PMC8007513:
# The other results are listed elsewhere or left out. Many values rest on one well or one pass, so single values are uncertain.
# Tested on: Saccharomyces cerevisiae BY4743
# Experiment: growth (OD600) relative to untreated control; higher = less growth inhibition
# Conditions: compound concentration: 133 uM; 20 h
# Method: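 NMCCC compounds (133 uM, no IPBC) tested alone against Saccharomyces cerevisiae BY4743 in YPD, 96-well plates, starting OD600 ~0.1. Growth was read as OD600 at 20 h and expressed as % of the untreated control. Single pass.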
row,Structure (SMILES),growth [%]
1,COc1ccc(Br)cc1CNC(=O)CN1C(=O)CSc2nc(C)cc(C)c21,101
2,COC1=CC=CC(=C1)\C2=C\CN(C(=O)N2)C3=CC=CC=C3O,111
3,Cc1cc(C(=O)COc2ccc(NC(=O)c3ccco3)cc2)c(C)n1C,108
4,Oc1ccc(Cl)cc1-c1cc(-c2ccco2)[nH]n1,3.52
5,CC(C)CCC(C)NC(=O)CSc1nnc(-c2ccc(F)c(F)c2)c(O)n1 (stereo unspecified),107
6,Cc1cccc(N2CCN(S(=O)(=O)c3cc(Br)cnc3N)CC2)c1C,109
7,CC\1(C)CC2=CC=CC=C2\C(=N1)CSC3=CC=CC=C3C(O)=O,107
8,CCS\C1=N\C2=CC=CC=C2C(=O)N1C3CCOC(C)(C)C3 (stereo unspecified),86.7
9,CN(C)C(=O)C(OC(=O)c1ccc2c(c1)CCC(=O)N2)c1ccccc1 (stereo unspecified),103
10,CCN(CC(=O)Nc1ccc(C(=O)Nc2ccc(OC)cc2)cc1)Cc1ccc(Cl)s1,86
11,O=C(O)CCc1ccc(-c2ccccc2)n1NC(=O)c1ccc(O)cc1,106
12,CCN(CC)CCNC(=O)CN1\C=N/C2=C(C(=NO2)C)C1=O,76.3
13,CCN(CC)S(=O)(=O)c1ccc(OC)c(NC(=O)CS(=O)(=O)c2ccc(Cl)cc2)c1,104
14,Cc1ccc(OCC(=O)NCCc2ccc(F)cc2)c2c1C(C)CC2=O (stereo unspecified),73.2
15,CCOC(=O)c1cc(S(=O)(=O)NC2CCN(Cc3ccccc3)CC2)cn1C,75.7
16,Nc1nc(SCc2c(Cl)cccc2Cl)c2[nH]cnc2n1,104

# Nothing new here: an excerpt of the list.
row,Structure (SMILES),growth [%]
13,CCN(CC)S(=O)(=O)c1ccc(OC)c(NC(=O)CS(=O)(=O)c2ccc(Cl)cc2)c1,104
14,Cc1ccc(OCC(=O)NCCc2ccc(F)cc2)c2c1C(C)CC2=O (stereo unspecified),73.2
